Experimental data: PubChem BioAssay AID504774 (Drosophila RNAi Screening Center, 2011)

- Screen: 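Fly genes whose loss alters survival after alkylation damage to DNA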 (primary screen)
- Cells: Drosophila Kc167 cells
- Reagents: long dsRNA against Drosophila genes, about 0.25 µg dsRNA per well
- Time to read-out: about 6 days: 3 days knock-down, then 3 days with or without MMS
- Challenge: methyl methanesulphonate 0.004% (w/v) for 3 days after knock-down
- Detection: 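ATP-dependent luminescence as a measure of live cells in MMS-exposed wells, quantile normalised within each plate, with replicate values also given as a mean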
- Reading the numbers: mean viability with MMS and viability with MMS: higher = more surviving cells after MMS
In all, the deposit lists about 23,000 reagents; this is a random part of those with a known target gene and a result. 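Values are quantile-normalised luminescence on an arbitrary scale; higher means more cells surviving MMS.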 The numbers tell different reagents against one gene apart. A plus sign joins genes that one reagent is predicted to hit. Reagent sequences are not shown.

mean viability with MMS | viability with MMS, replicate 1 | viability with MMS, replicate 2 | gene | dsRNA no.
3.44e6 | 3.79e6 | 3.97e6 | Rab3 | 1
3.59e6 | 4.05e6 | 4.12e6 | Ravus | 1
3.73e6 | 4.27e6 | 4.31e6 | CG3092 | 1
3.51e6 | 3.92e6 | 4.04e6 | CG32277 | 1
3.47e6 | 3.84e6 | 4.04e6 | eIF4H2 (eukaryotic translation initiation factor 4H2) | 1
3.42e6 | 3.92e6 | 3.91e6 | Targ2 (Terminal ADP-ribose protein glycohydrolase 2) | 1
3.44e6 | 3.88e6 | 3.92e6 | Kmn1 (kinetochore Mis12-Ndc80 network component 1) | 1
3.78e6 | 4.21e6 | 4.31e6 | CG31016 | 1
1.85e6 | 4.01e6 | 4.02e6 | CG17726 | 1
3.53e6 | 4.00e6 | 4.02e6 | CG2217 + CG42740 | 1
3.47e6 | 4.01e6 | 3.84e6 | betaCOP (Coat Protein (coatomer) beta) | 1
2.91e6 | 3.63e6 | 3.68e6 | ac (achaete) | 1
3.62e6 | 4.20e6 | 3.95e6 | CG13220 | 1
3.52e6 | 4.00e6 | 3.99e6 | CG42561 | 1
3.35e6 | 3.77e6 | 3.78e6 | omd (oocyte maintenance defects) | 1
3.57e6 | 4.14e6 | 3.96e6 | CG4911 | 1
3.58e6 | 4.04e6 | 4.08e6 | Cnot4 (CCR4-NOT transcription complex subunit 4) | 1
3.58e6 | 4.02e6 | 4.11e6 | Cnot4 (CCR4-NOT transcription complex subunit 4) | 2
3.64e6 | 4.15e6 | 4.08e6 | trv (trivet) | 1
3.44e6 | 3.87e6 | 3.89e6 | trv (trivet) | 2
3.54e6 | 3.90e6 | 4.11e6 | trv (trivet) | 3
3.71e6 | 4.23e6 | 4.14e6 | trv (trivet) | 4
3.50e6 | 3.87e6 | 4.05e6 | Ccdc39 (Coiled-coil domain containing protein 39) | 1
3.47e6 | 3.68e6 | 4.06e6 | Trxr1 (Thioredoxin reductase 1) | 1
3.53e6 | 3.96e6 | 4.04e6 | Trxr1 (Thioredoxin reductase 1) | 2
3.49e6 | 3.94e6 | 4.09e6 | stl (stall) | 1
3.58e6 | 4.12e6 | 4.03e6 | CG6325 | 1
3.59e6 | 4.10e6 | 4.05e6 | CG17780 | 1

4 entries from above, ordered by “mean viability with MMS”, ascending:
mean viability with MMS | viability with MMS, replicate 1 | viability with MMS, replicate 2 | gene | dsRNA no.
3.47e6 | 3.84e6 | 4.04e6 | eIF4H2 (eukaryotic translation initiation factor 4H2) | 1
3.51e6 | 3.92e6 | 4.04e6 | CG32277 | 1
3.59e6 | 4.05e6 | 4.12e6 | Ravus | 1
3.73e6 | 4.27e6 | 4.31e6 | CG3092 | 1
